PubChem BioAssay AID743454 – Peter MacCallum Cancer Centre – 2014
Aim: 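Search for knock-downs that restore vorinostat killing in resistant colon cancer cells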 (primary screen). Cell system: human HCT116-VR colon cancer cells, selected for vorinostat resistance. Knock-down reagent: siRNA pool against human genes, 40 nM siRNA pool. Duration: vorinostat for 24 h, read-out about 72 h after transfection. Treatment: vorinostat at 2.5 µM final. Measurement: 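Cell viability by CellTiter-Fluor and caspase 3/7 activity by luminescence, each scaled to mock wells per plate, duplicates averaged, then robust z-scored over all plates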. Scale: viability robust z-score: higher = more viable cells than screen typical; caspase robust z-score: higher = more caspase 3/7 activity than screen typical. Call rule: 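Hits are knock-downs in viability class RV1/RV2 or caspase class CA1/CA2, excluding ones that killed cells in the no-drug cell-count arm; hits then retested with single siRNAs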.
The whole screen tested about 18,000 reagents; below is a random part of them. 450 of them (2.5%) were called active. 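Single biological run; no consistent viability z cut-off exists, so the class columns, not z-scores, define the calls.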

C15orf40 (chromosome 15 open reading frame 40) — viability hit class = no change; caspase hit class = no change; viability robust z-score = -0.44; caspase robust z-score = -0.75; activity call = inactive
NOD1 (nucleotide binding oligomerization domain containing 1) — viability hit class = no change; caspase hit class = no change; viability robust z-score = 0.5; caspase robust z-score = -0.76; activity call = inactive
CTSG (cathepsin G) — viability hit class = no change; caspase hit class = no change; viability robust z-score = 0.56; caspase robust z-score = -0.74; activity call = inactive
DNAJB2 (DnaJ heat shock protein family (Hsp40) member B2) — viability hit class = no change; caspase hit class = no change; viability robust z-score = 1.41; caspase robust z-score = -0.12; activity call = inactive
SLC5A3 — viability hit class = no change; caspase hit class = no change; viability robust z-score = 0.64; caspase robust z-score = -0.15; activity call = inactive
C11orf52 (chromosome 11 open reading frame 52) — viability hit class = no change; caspase hit class = no change; viability robust z-score = -1.54; caspase robust z-score = 0.66; activity call = inactive
LPCAT1 (lysophosphatidylcholine acyltransferase 1) — viability hit class = no change; caspase hit class = no change; viability robust z-score = -0.66; caspase robust z-score = -0.25; activity call = inactive
MAFK (MAF bZIP transcription factor K) — viability hit class = no change; caspase hit class = no change; viability robust z-score = -0.56; caspase robust z-score = -0.6; activity call = inactive
H2AZ2 (H2A.Z variant histone 2) — viability hit class = no change; caspase hit class = no change; viability robust z-score = -0.23; caspase robust z-score = -0.14; activity call = inactive
CRYAA (crystallin alpha A) — viability hit class = no change; caspase hit class = no change; viability robust z-score = 1.2; caspase robust z-score = 3.58; activity call = inactive
UMOD (uromodulin) — viability hit class = no change; caspase hit class = no change; viability robust z-score = -0.75; caspase robust z-score = 0.04; activity call = inactive
EIF2B4 (eukaryotic translation initiation factor 2B subunit delta) — viability hit class = no change; caspase hit class = no change; viability robust z-score = -2.1; caspase robust z-score = -0.67; activity call = inactive
MCOLN2 (mucolipin TRP cation channel 2) — viability hit class = no change; caspase hit class = no change; viability robust z-score = 0.06; caspase robust z-score = 2.64; activity call = inactive
PLEC (plectin) — viability hit class = no change; caspase hit class = no change; viability robust z-score = 0.8; caspase robust z-score = 2.46; activity call = inactive
PPP6C (protein phosphatase 6 catalytic subunit) — viability hit class = no change; caspase hit class = no change; viability robust z-score = 0.4; caspase robust z-score = -0.46; activity call = inactive
TSNAX (translin associated factor X) — viability hit class = no change; caspase hit class = no change; viability robust z-score = -0.48; caspase robust z-score = -1.13; activity call = inactive
DCTD (dCMP deaminase) — viability hit class = no change; caspase hit class = no change; viability robust z-score = 1.52; caspase robust z-score = 0.08; activity call = inactive
SLC10A3 — viability hit class = no change; caspase hit class = CA1 (caspase activation); viability robust z-score = -1.66; caspase robust z-score = 7.27; activity call = active
OLFML1 (olfactomedin like 1) — viability hit class = no change; caspase hit class = no change; viability robust z-score = 0.6; caspase robust z-score = -1.21; activity call = inactive
FRY (FRY microtubule binding protein) — viability hit class = no change; caspase hit class = no change; viability robust z-score = 0.38; caspase robust z-score = -0.82; activity call = inactive
CYSLTR1 (cysteinyl leukotriene receptor 1) — viability hit class = no change; caspase hit class = no change; viability robust z-score = 0.26; caspase robust z-score = 0.22; activity call = inactive
CD207 (CD207 molecule) — viability hit class = no change; caspase hit class = no change; viability robust z-score = -3.04; caspase robust z-score = 1.36; activity call = inactive
SDHAF4 (succinate dehydrogenase complex assembly factor 4) — viability hit class = no change; caspase hit class = no change; viability robust z-score = -0.32; caspase robust z-score = -0.24; activity call = inactive
MT1HL1 (metallothionein 1H like 1) — viability hit class = no change; caspase hit class = no change; viability robust z-score = 0.95; caspase robust z-score = -0.62; activity call = inactive
TMEM45A (transmembrane protein 45A) — viability hit class = no change; caspase hit class = no change; viability robust z-score = 0.13; caspase robust z-score = 1.29; activity call = inactive
CYP2R1 (cytochrome P450 family 2 subfamily R member 1) — viability hit class = no change; caspase hit class = no change; viability robust z-score = 0.81; caspase robust z-score = 0.11; activity call = inactive
NUMBL (NUMB like endocytic adaptor protein) — viability hit class = no change; caspase hit class = no change; viability robust z-score = -1.94; caspase robust z-score = 1.24; activity call = inactive

Single entries from above:
For “viability robust z-score”, H2AZ2 (H2A.Z variant histone 2) shows -0.23
Under “viability robust z-score”, TSNAX (translin associated factor X) is entered as -0.48
